Measurements taken from PubChem BioAssay AID588590 (National Center for Advancing Translational Sciences (NCATS), 2011).
Where “and” joins values, the source holds several entries; their conditions need not be identical. Equal values may be shown once. Hit rate of the full screen: of about 390,000 compounds, about 4,000 (1%) were called active. The inconclusive results got no clear call from the source; some entries with a clear call stand among them for comparison. Calls follow the shape of the dose curve; as a rule, active = well fitted inhibition curve with a large enough effect; inconclusive = small, poorly fitted or top-dose-only effect, or another doubt; inactive = no such curve, though single readings can be large or run the other way. Potencies beside an inconclusive call are fits to weak or partial responses and may not hold up.

The chains behind the UniProt entries cited, without tags or fusion partners. Where a name states a change or a piece, a line headed by the entry shows the natural chain unless it says otherwise.
UniProt Q9UNA4: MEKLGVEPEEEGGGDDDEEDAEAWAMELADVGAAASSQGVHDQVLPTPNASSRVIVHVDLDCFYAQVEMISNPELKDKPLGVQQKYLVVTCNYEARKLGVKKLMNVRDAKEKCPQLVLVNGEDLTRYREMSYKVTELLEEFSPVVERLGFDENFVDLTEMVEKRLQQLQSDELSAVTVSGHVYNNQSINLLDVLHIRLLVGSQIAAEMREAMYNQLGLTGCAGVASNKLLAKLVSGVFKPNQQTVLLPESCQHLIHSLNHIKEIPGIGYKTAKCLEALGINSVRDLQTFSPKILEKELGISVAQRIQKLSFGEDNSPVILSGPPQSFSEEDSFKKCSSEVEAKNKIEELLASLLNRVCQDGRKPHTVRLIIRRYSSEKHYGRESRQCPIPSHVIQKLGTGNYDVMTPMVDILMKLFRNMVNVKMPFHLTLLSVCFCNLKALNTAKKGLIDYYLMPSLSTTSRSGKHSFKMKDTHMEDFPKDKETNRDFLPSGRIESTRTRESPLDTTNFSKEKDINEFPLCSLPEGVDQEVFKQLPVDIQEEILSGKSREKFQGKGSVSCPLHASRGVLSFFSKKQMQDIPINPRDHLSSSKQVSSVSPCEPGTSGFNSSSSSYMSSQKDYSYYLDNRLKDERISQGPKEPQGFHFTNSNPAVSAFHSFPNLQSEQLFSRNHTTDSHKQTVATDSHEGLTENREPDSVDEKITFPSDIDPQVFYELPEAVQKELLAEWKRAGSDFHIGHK

Molecular target: DNA polymerase iota (Homo sapiens) (UniProt Q9UNA4)
Assay: qHTS for Inhibitors of Polymerase Iota
Details: Pol iota fluorescent replication assay, 10 min; series mostly up to 115 µM; activity, negative = inhibition: at the top concentration
Method in brief: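 Fluorescent replication assay read twice, at 0 min and 10 min after adding 50 nM (final) substrate. Enzyme (10 nM) and compounds were first incubated 15 min at room temperature; enzyme-free buffer wells were negative controls.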
Potency is read from the fitted curve at half-maximal effect.

Potency, active:
CCc1cc2cc3c(cc2nc1SCC(=O)Nc1nccs1)OCO3 70.8 µM

Potency, inactive:
CCOC(=O)c1cnc2c(Cl)c(Cl)ccc2c1NCCN1CCOCC1

Potency, inconclusive:
COc1ccc(N(C(=O)c2ccco2)S(=O)(=O)c2ccc(F)cc2)cc1 44.7 µM [inhibitor, partial curve, poor fit], O=C(C1=C(O)C(=O)N(c2ncccn2)C1c1cccs1)c1ccco1 (centres undefined) 20 µM [inhibitor, full curve], Cc1c(CCC(=O)O)c(=O)oc2cc3occ(-c4ccc(F)cc4)c3cc12 79.4 µM [inhibitor, single point], CC[C@]1(O)CC2CN(CCc3c([nH]c4ccccc34)[C@@](C(=O)OC)(c3cc4c(cc3OC)N(C)[C@H]3[C@@](O)(C(=O)OC)[C@H](OC(C)=O)[C@]5(CC)C=CCN6CC[C@]43[C@@H]65)C2)C1 (some centres undefined) 44.7 µM [inhibitor, partial curve, poor fit], CC(C)(C)C(=O)Nc1ccc(N2CCN(S(C)(=O)=O)CC2)cc1 100 µM [inhibitor, single point], CC1CC=C2C(C#N)=C(N)C(C#N)(C#N)C(c3cccs3)C2C1 (centres undefined) 12.6 µM [inhibitor, partial curve], CCNC(=O)N(C)C[C@H]1N[C@@](CC)(C(=O)OC)[C@H]2C(=O)N(Cc3ccccc3)C(=O)[C@@H]12 17.8 µM [inhibitor, partial curve, poor fit], Cc1ccc(Oc2coc3cc(OCC(=O)NC4CCCCC4)ccc3c2=O)cc1 89.1 µM [inhibitor, single point], CC1OC(OCC2OC(Oc3c(-c4ccc(O)cc4)oc4cc(O)cc(O)c4c3=O)C(O)C(O)C2O)C(O)C(O)C1O (centres undefined) 44.7 µM [inhibitor, partial curve, poor fit], COc1cc(OC)cc(C(=O)Oc2c(Sc3ccccc3)c(C)nn2C(C)(C)C)c1 10 µM [inhibitor, partial curve, poor fit], C#CCOCCOCCOCCNc1nc(N2CCOCC2)nc(N2CCN(C(=O)[C@H](CCCCN)n3cc(CCCC)nn3)CC2)n1 39.8 µM [inhibitor, single point], Cc1ccc(C)c(OCCCNC2CCCC2)c1C 56.2 µM [inhibitor, partial curve, poor fit], CCN(CC)C(=O)CC(c1ccc(OC)cc1)c1c(OC)cc(OC)c2c(-c3ccccc3)cc(=O)oc12 (centres undefined) 89.1 µM [inhibitor, partial curve, poor fit], CCN1C(=O)/C(=C2/Sc3ccccc3N2CCCS(=O)(=O)O)SC1=S 25.1 µM [inhibitor, partial curve] and 631 nM [inhibitor, full curve, poor fit], O=C(N/N=C/c1c(Cl)nc2ccccn2c1=O)c1cccnc1 63.1 µM [inhibitor, single point], Cc1ccc(S(=O)(=O)NCCC(=O)N2CCCC(C)C2)cc1 (centres undefined) 89.1 µM [inhibitor, single point], COC(=O)/C=C/C(=O)NCc1ccco1 8.91 µM [inhibitor, full curve], COCCn1c(C)cc(C(=O)CSc2nnc(-c3cccnc3)n2-c2ccccc2F)c1C 70.8 µM [inhibitor, partial curve, poor fit], CCc1ccc(NC(=O)c2cc(C(C)=O)n3ccccc23)cc1 89.1 µM [inhibitor, single point], COc1cc(/C=C2/C(=O)ON=C2C)ccc1OCc1cccc(F)c1 39.8 µM [inhibitor, single point], Cc1ccc2[nH]c(=O)c3cc(C(=O)N4CCN(c5ccccc5)CC4)sc3c2c1 79.4 µM [inhibitor, single point], CC(=O)Nc1ccc(C(=O)NCC(c2ccco2)N(C)C)cc1 (centres undefined) 14.1 µM [inhibitor, partial curve, poor fit], O=C(Cc1n[nH]c(=O)c2ccccc12)OCC(=O)N(Cc1ccccc1)Cc1ccccc1 1.12 µM [inhibitor, partial curve, poor fit], O=C(CSc1nc(-c2ccco2)cc(C(F)(F)F)n1)N1CCc2ccccc2C1 35.5 µM [inhibitor, partial curve, poor fit], Cc1ccc(N2/C(=N/c3nc(C)cc(C)n3)NC(=O)CC2C(=O)O)cc1 (centres undefined) 100 µM [inhibitor, single point], O=[N+]([O-])c1ccc(-c2nc(-c3ccncc3)no2)cc1 31.6 µM [inhibitor, full curve]

activity, negative = inhibition, inactive:
C/C(CC(=O)N1CCN(C=O)CC1)=N\NC(=O)c1ccc(Br)cc1 -25.6%, COc1cc(-c2noc(CN3CCN(c4ccccc4)CC3)n2)cc(OC)c1OC 4.28%, CC(C)c1cc(CNC(=O)c2ccc(OC3CCN(Cc4ccccn4)CC3)cc2)on1 21%, CCOc1ccc(-n2c(Cc3ccccc3)nnc2SCc2nc(-c3ccccc3OC)no2)cc1 16.9%, Fc1ccc(NC(=S)Nc2cc(-c3ccccc3)[nH]n2)cc1Cl 68.7%, O=[N+]([O-])c1cccc(S(=O)(=O)N2CCN(c3nc(-c4ccccc4)nc4ccccc34)CC2)c1 -1.37%, COc1cccc(NC(=O)CSc2nc3c(oc4ccccc43)c(=O)n2Cc2ccco2)c1 0.201%, CCOC(=O)c1scc(-c2ccccc2)c1S(=O)(=O)Nc1ccccc1F -22.6%, Cc1cc(C)c(Cn2c3ccccc3c3cnn(CC(=O)NC4CCC(C)CC4)c(=O)c32)c(C)c1 (centres undefined) -1.14%, C/C(=N/Nc1ccc(C(=O)O)cc1)c1ccc(O)c(O)c1O -12.9%, CCOC(=O)c1c(C)n(-c2ccccc2)c2ccc(OC(=O)c3ccccc3)cc12 8.56%
